In PubChem BioAssay AID540276 (National Center for Advancing Translational Sciences (NCATS), 2011):
Several values for one entry are separate records, joined by “and”; a condition that tells them apart may be missing. Identical values can stand only once. The campaign covered roughly 300,000 compounds. About 5,400 (1.8%) were called active. The inconclusive results got no clear call from the source; some entries with a clear call stand among them for comparison. The call rests on the fitted dose curve; tested in HEK293 cells. Where the call is inconclusive, the potency comes from a doubtful curve fit.

Assay: qHTS for inhibitors of binding or entry into cells for Marburg Virus
Settings: Marburg virus pseudotyped entry inhibition, cell reporter; activity change, negative = inhibition: at 37.8 µM (top of the series) unless noted
On the % scale 0 is the no-effect control and ±100 the full control effect; potency means the concentration at half of the fitted maximal effect.

| SMILES | Potency | activity change, negative = inhibition |
| --- | --- | --- |
| C[n+]1c2n(c3ccccc31)N=C(c1ccccc1)CS2 | inconclusive: 562 nM [inhibitor, full curve, poor fit] and inconclusive: 15.8 µM [inhibitor, single point] | – |
| COc1cc(NC(=O)CCn2c(=O)oc3ccccc32)cc(OC)c1OC | inactive and inconclusive: 6.31 µM [inhibitor, single point] | – |
| COc1ccc2[nH]c(C(=O)Nc3ncc(C)cc3Br)cc2c1 | inconclusive: 35.5 µM [activator, single point] | – |
| COc1cc(CNCc2ccccn2)ccc1OCc1cccc(Cl)c1 | inconclusive: 18.3 µM [inhibitor, partial curve, poor fit] | – |
| C=CCc1cccc(CNc2nc3ccccc3n2C(C)C)c1O | inconclusive: 23.1 µM [inhibitor, single point] | – |
| COc1ccccc1CNc1nc(-c2ccco2)nn1S(C)(=O)=O | inconclusive: 10 µM [activator, partial curve] | – |
| O=C(N/N=C/c1ccc([N+](=O)[O-])s1)c1ccccc1 | inconclusive: 11.2 µM [inhibitor, partial curve, poor fit] | – |
| COc1ccccc1-c1nc(C#N)c(N2CCN(Cc3ccccc3)CC2)o1 | inactive | – |
| COC(=O)c1ccc(-n2c(C)cc(C(=O)COC(=O)C3=COCCO3)c2C)cc1 | inactive | – |
| CCCN=C(C)C1=C(O)c2ccccc2C1=O | inconclusive: 4.47 µM [activator, partial curve] | – |
| Cc1cc2nc(C3CCCN(C(=O)NCc4ccccc4)C3)[nH]c2cc1C (stereo not drawn) | inactive | – |
| CC(Oc1cccc(Cl)c1)C(=O)N(C)CC(=O)Nc1ccc(N2CCOCC2)cc1 (stereo not drawn) | inconclusive: 0.794 µM [inhibitor, single point] | – |
| Cc1ccc(OCCN2CCN(C(=O)CCC(=O)Nc3nnc(C(C)C)s3)CC2)cc1 | inconclusive: 14.1 µM [inhibitor, partial curve] | – |
| CCNc1nc(NCC)nc(N/N=C/c2ccc(O)c(OC)c2)n1 | inactive | – |
| COc1ccccc1OCC(=O)N(Cc1cccs1)C1CCS(=O)(=O)C1 (stereo not drawn) | inactive | – |
| CCC(=O)c1ccc(OCC(=O)OCC(=O)c2cc(C)n(C)c2C)cc1 | inactive | – |
| CN(CCc1ccccn1)C(=O)c1nn2c(C(F)(F)F)cc(-c3ccco3)nc2c1Cl | inconclusive: 12.6 µM [inhibitor, partial curve] | – |
| O=S(=O)(c1ccccc1F)N1CCN(CCc2ccccc2)CC1 | inconclusive: 0.1 µM [inhibitor, full curve, poor fit] | – |
| Cc1cc(=O)oc2c1c(C)nn2-c1ccc(Br)cc1 | inconclusive: 3.98 µM [inhibitor, single point] | – |
| Nc1nc(-c2ccccn2)nc(N)c1Cc1ccc(Cl)cc1Cl | inconclusive: 6.31 µM [inhibitor, full curve, poor fit] | – |
| Cc1ccc(S(=O)(=O)c2nc(-c3cccs3)oc2SCC(=O)Nc2cc(C)cc(C)c2)cc1 | inconclusive: 35.5 µM [inhibitor, single point] | – |
| CCCOC(=O)CCNc1n[nH]c(=O)[nH]c1=O | inconclusive: 1.12 µM [activator, full curve] | – |
| CC(C)(C)c1ccc(S(=O)(=O)NCc2ccccn2)cc1 | inactive | – |

| SMILES | Potency | activity change, negative = inhibition |
| --- | --- | --- |
| COc1ccc(C(O)(CCN2CCCCC2)C2CCCCC2)cc1 (stereo not drawn) | inconclusive: 5.01 µM [inhibitor, partial curve, poor fit] | – |
| O=C(c1cc2ccccc2oc1=O)N(Cc1cccs1)Cc1ccccc1Cl | inactive | – |
| O=C(O)C(=O)/C(=C\c1ccccc1)c1ccc2ccccc2n1 | inactive | – |
| Cc1ccc(C)c(S(=O)(=O)Nc2ccc(O)cc2)c1 | inconclusive: 0.112 µM [inhibitor, full curve, poor fit] | – |
| Cc1ncc(CO)c2c1Oc1nc(-c3ccccc3)nc(SCC(=O)N3CCOCC3)c1C2 | inconclusive: 1.78 µM [inhibitor, partial curve, poor fit] | – |
| CCOc1ccc2oc(=O)cc(CN3CCN(Cc4ccc(C)cc4)CC3)c2c1 | inconclusive: 17.8 µM [inhibitor, single point] | – |
| CC1(C)Cc2cccc(OCC(=O)NCc3ccc(F)cc3)c2O1 | – | inconclusive: 1.79% [activator] |
| CCCCNc1oc(-c2ccc(COc3ccccc3C)o2)nc1C#N | inconclusive: 0.562 µM [inhibitor, full curve, poor fit] | – |
| COc1ccccc1N1CCN(Cc2nc(N)nc(Nc3ccc(C)cc3)n2)CC1 | inconclusive: 32.6 µM [inhibitor, single point] | – |
| CC(C)NC(=S)NN=C1CCCCCCCCCCC1 | inconclusive: 35.5 µM [inhibitor, single point] | – |
| COCCN(Cc1ccccc1)C(=O)c1cccc(S(=O)(=O)N2CCN(c3ccccc3)CC2)c1 | inconclusive: 11.2 µM [inhibitor, partial curve, poor fit] | – |
| CCOc1ccc2nc(Cl)c(/C=C/C(=O)c3ccco3)cc2c1 | inconclusive: 11.6 µM [inhibitor, partial curve, poor fit] | – |
| O=C(COC(=O)CNC(=O)c1ccc(Cl)cc1Cl)NCc1ccco1 | active: 2.82 µM | – |
| COc1ccc(S(=O)(=O)N(CC(=O)NCCSc2ccccc2)c2ccc(C)cc2)cc1 | inactive | – |
| CC(=O)Nc1ccc(/C=C(\C#N)C(=O)NC2CCCCC2)cc1 | inactive | – |
| Cc1cc(C(=O)NCC(=O)Nc2c(C)cccc2C)c(C)o1 | inconclusive: 2.82 µM [inhibitor, single point] | – |
| Cc1ccccc1NC(=O)c1c(C)[nH]c(=S)c(C#N)c1-c1ccco1 | inconclusive: 8.91 µM [activator, partial curve] | – |
| Cc1cccc(C(C)(C)C)c1OCCN1CCCC1 | inconclusive: 16.4 µM [inhibitor, partial curve, poor fit] | – |
| COc1ccc(CCN(C)CCC(=O)Nc2ccc(C)cc2)cc1OC | inconclusive: 29.1 µM [inhibitor, single point] | – |
| COc1ccc(C2C(C(=O)Nc3cccc(C)n3)CCC(=O)N2c2ccc(OC)cc2)cc1 (stereo not drawn) | inconclusive: 3.98 µM [inhibitor, full curve, poor fit] | – |
| O=C(O)c1ccc(Nc2nc(-c3ccccc3)cs2)cc1 | inconclusive: 35.5 µM [inhibitor, single point] | – |
| CNc1nc(Cl)c(SC)c(NCc2cccc(OC)c2)n1 | inconclusive: 35.5 µM [inhibitor, single point] | – |
| Cc1nc(-c2ccccc2)nc2[nH]c(=O)n(-c3ccccc3)c(=O)c12 | inactive | – |

| SMILES | Potency | activity change, negative = inhibition |
| --- | --- | --- |
| CCOC(=O)CC1=NN(c2ccccc2)C(=O)/C1=C\c1ccc(N(C)C)cc1 | inconclusive: 23.1 µM [inhibitor, single point] | – |
| CCCCOC(=O)Nc1nc2ccc(OC)cc2s1 | inactive | – |
| Cc1nn(Cc2noc(C(=O)NCc3ccc4c(c3)OCO4)n2)c(C)c1Br | inconclusive: 2.24 µM [activator, partial curve, poor fit] | – |
| O=C(Nc1ccc(Br)cc1)/C(=C/c1cccc([N+](=O)[O-])c1)NC(=O)C1CCCCC1 | inconclusive: 2.06 µM [inhibitor, partial curve, poor fit] | – |
| CCOC(=O)c1c(-c2ccc(OC)c(OC)c2)csc1NC(=O)c1ccc(C)cc1 | inactive | – |
| COc1ccc(-n2c(CNc3ccc(C)cc3)nnc2SCC(=O)Nc2nc(-c3ccccc3)cs2)cc1 | inconclusive: 20.6 µM [inhibitor, single point] | – |
| O=C(CSc1nnc(-c2cccc(F)c2)o1)N1CCCC1 | inconclusive: 15.8 µM [activator, single point] | – |
| COc1ccc(Cl)cc1NC(=S)NN1CCOCC1 | inactive | – |
| CCc1ccc(NC(=O)C2=C(C)C(=O)OC23CCCCC3)cc1 | inactive | – |
| Brc1ccc2ncnc(Nc3ccc(N4CCOCC4)cc3)c2c1 | inconclusive: 6.31 µM [activator, single point] | – |
| Cc1ccc(NCC(=O)N=Nc2c(O)n(C)c3ccccc23)cc1 | inconclusive: 12.6 µM [activator, single point] | – |
| Cc1cc(O)c(/C=N/Nc2ccc(F)cc2)c(=O)o1 | inconclusive: 35.5 µM [inhibitor, partial curve, poor fit] | – |
| CCOP(=O)(OCC)C(CC)N1CCOCC1 (stereo not drawn) | inactive | – |
| COc1ccc(-c2nnc3sc(CCN4C(=O)c5ccccc5C4=O)nn23)cc1 | inactive | – |
| CCCc1nc2ccccc2c(=O)n1-c1cccc(OC)c1 | inconclusive: 35.5 µM [inhibitor, single point] | – |
| O=C(N/N=C/c1cc(Br)cc([N+](=O)[O-])c1O)c1ccc(NC(=O)c2ccc(F)cc2)cc1 | inconclusive: 3.98 µM [activator, full curve, poor fit] | – |
| CC12CC(NC(=O)N1c1cccc(C(=O)N3CCN(c4ccccc4)CC3)c1)c1ccccc1O2 (stereo not drawn) | inactive | – |
| CCC(=O)Nc1ccc(NC(=O)c2cc3ccccc3o2)c(OC)c1 | inconclusive: 2.24 µM [activator, partial curve, poor fit] | – |
| Cc1cc(NC(=O)c2noc3c2CCCCC3)no1 | inconclusive: 5.17 µM [activator, full curve, poor fit] | – |
| Cc1cc(C)c(S(=O)(=O)N2CCN(C(=O)N(C)C)CC2)c(C)c1 | inactive | – |
| CCCCCOc1ccc(C(=O)CCC(=O)NNC(=O)c2ccncc2)cc1 | inconclusive: 35.5 µM [activator, single point] | – |
| COC(=O)c1ccc(C(=O)N2CCCC(N3CCN(c4ccccc4)CC3)C2)nc1 (stereo not drawn) | inconclusive: 8.91 µM [activator, partial curve, poor fit] | – |
